Results are given in words; binding and its absence hold for the method and conditions named. Binding seen in cells or lysates may run through a third protein. Some results given as binding are weak or reduced against the parent protein; the word gives no strength. For some assays here: Where a sequence is shown, tags or fusion partners need not be part of it.

The chains behind the UniProt entries cited, without tags or fusion partners. Where a name states a change or a piece, a line headed by the entry shows the natural chain unless it says otherwise. A line that says so, or that is headed by a name, gives the form on record, which may keep a tag or linker. Residues count along the entry.
UniProt Q13873: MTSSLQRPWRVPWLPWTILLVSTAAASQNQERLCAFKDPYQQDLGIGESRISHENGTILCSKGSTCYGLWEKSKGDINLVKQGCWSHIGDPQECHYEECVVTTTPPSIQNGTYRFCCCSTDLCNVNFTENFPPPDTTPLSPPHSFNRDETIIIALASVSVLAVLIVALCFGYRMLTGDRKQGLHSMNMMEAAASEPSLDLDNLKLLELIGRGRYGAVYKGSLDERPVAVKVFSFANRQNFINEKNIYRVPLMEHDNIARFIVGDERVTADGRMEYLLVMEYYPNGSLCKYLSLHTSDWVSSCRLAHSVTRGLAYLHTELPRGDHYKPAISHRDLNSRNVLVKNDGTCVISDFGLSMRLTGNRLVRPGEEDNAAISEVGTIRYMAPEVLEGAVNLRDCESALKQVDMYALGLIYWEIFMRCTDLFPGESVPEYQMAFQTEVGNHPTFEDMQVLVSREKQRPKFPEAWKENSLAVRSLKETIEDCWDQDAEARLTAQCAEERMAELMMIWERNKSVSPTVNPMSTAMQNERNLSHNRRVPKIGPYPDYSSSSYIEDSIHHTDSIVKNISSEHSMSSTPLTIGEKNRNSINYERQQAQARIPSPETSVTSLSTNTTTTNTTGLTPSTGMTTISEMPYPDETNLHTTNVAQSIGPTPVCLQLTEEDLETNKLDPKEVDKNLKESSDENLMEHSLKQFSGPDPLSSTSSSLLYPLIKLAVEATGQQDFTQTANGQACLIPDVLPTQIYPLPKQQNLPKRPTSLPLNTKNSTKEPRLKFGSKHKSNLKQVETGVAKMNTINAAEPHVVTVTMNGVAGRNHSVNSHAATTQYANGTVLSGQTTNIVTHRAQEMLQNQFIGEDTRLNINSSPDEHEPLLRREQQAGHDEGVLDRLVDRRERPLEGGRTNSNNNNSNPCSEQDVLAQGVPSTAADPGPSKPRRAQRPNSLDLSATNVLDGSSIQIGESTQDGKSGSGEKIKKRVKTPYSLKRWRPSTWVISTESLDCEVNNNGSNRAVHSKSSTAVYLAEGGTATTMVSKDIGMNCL
Myc-tagged full length BMPR2: residues 27-1038 of Q13873
Myc-BMPR2-S532X: residues 27-531 of Q13873
UniProt P49407: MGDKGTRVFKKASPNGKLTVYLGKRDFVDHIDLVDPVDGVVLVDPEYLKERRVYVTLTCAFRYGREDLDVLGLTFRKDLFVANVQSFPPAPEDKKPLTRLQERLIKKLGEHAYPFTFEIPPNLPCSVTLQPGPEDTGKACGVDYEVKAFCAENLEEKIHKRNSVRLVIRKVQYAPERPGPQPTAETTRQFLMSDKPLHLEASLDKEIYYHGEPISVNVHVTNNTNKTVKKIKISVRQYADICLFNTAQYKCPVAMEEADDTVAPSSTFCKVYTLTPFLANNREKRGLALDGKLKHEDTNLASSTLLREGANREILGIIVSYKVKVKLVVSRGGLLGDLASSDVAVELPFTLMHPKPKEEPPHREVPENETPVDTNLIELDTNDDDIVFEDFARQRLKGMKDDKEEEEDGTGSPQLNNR
UniProt P29066: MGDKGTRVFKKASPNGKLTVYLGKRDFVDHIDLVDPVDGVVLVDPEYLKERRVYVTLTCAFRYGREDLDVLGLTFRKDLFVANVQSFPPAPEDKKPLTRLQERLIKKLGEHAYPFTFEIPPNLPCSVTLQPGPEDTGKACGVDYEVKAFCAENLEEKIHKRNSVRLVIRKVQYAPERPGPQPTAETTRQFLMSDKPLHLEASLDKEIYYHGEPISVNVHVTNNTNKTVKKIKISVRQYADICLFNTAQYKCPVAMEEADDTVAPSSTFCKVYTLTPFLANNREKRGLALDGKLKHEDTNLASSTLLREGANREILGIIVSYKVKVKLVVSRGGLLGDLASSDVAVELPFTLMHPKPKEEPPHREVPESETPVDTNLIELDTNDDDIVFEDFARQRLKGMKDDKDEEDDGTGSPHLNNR
UniProt P29067: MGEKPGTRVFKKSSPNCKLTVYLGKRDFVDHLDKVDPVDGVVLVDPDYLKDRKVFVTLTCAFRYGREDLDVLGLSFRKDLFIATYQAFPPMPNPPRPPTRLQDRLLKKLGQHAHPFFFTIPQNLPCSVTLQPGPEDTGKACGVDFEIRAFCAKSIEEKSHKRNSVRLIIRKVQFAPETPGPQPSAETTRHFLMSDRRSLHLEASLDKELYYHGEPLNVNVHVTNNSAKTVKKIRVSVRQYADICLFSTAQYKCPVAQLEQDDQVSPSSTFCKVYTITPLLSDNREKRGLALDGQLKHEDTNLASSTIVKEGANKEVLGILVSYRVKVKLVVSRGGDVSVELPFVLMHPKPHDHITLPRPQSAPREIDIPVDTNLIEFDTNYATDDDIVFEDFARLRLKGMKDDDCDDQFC

For three molecules, binding results are on record in article PMC9751664.

Assay [1] has as its target Myc-tagged full length BMPR2 (UniProt Q13873). Briefly: co-IP; HEK293 cells cotransfected with Myc-BMPR2 or Myc-BMPR2-S532X and tagged β-arrestin1/2; lysates incubated overnight at 4°C with anti-Myc sepharose (Pierce Crosslink IP Kit), eluted with 0.5 mg/ml c-Myc peptide, immunoblot; no ligand (constitutive).
In a further assay the target is Myc-BMPR2-S532X (UniProt Q13873). The description is as above.
The next assay addresses GFP-tagged β-arrestin1 (UniProt P49407). Briefly: co-IP; HEK293 cells cotransfected with GFP-β-arrestin1 (or GFP control) and Myc-IFT81; NP-40 lysates precipitated with mouse anti-GFP antibody and protein A/G agarose at 4°C; blot with anti-Myc and anti-GFP.

Turning to “β-arrestin1 (HA- or FLAG-tagged, overexpressed) (from UniProt P29066 1-418)”, the binding result (in assay [1]; in the assay with Myc-BMPR2-S532X) was “binds” in each case.
Consider “β-arrestin2 (HA- or FLAG-tagged, overexpressed) (from UniProt P29067 1-410)”, for which the binding result (in assay [1]; with Myc-BMPR2-S532X) was “binds” each time.

B1: Myc-tagged IFT81 (protein, UniProt Q8WYA0 1-676)
chain: MSDQIKFIMDSLNKEPFRKNYNLITFDSLEPMQLLQVLSDVLAEIDPKQLVDIREEMPEQTAKRMLSLLGILKYKPSGNATDMSTFRQGLVIGSKPVIYPVLHWLLQRTNELKKRAYLARFLIKLEVPSEFLQDETVADTNKQYEELMEAFKTLHKEYEQLKISGFSTAEIRKDISAMEEEKDQLIKRVEHLKKRVETAQNHQWMLKIARQLRVEKEREEYLAQQKQEQKNQLFHAVQRLQRVQNQLKSMRQAAADAKPESLMKRLEEEIKFNLYMVTEKFPKELENKKKELHFLQKVVSEPAMGHSDLLELESKINEINTEINQLIEKKMMRNEPIEGKLSLYRQQASIISRKKEAKAEELQEAKEKLASLEREASVKRNQTREFDGTEVLKGDEFKRYVNKLRSKSTVFKKKHQIIAELKAEFGLLQRTEELLKQRHENIQQQLQTMEEKKGISGYSYTQEELERVSALKSEVDEMKGRTLDDMSEMVKKLYSLVSEKKSALASVIKELRQLRQKYQELTQECDEKKSQYDSCAAGLESNRSKLEQEVRRLREECLQEESRYHYTNCMIKNLEVQLRRATDEMKAYISSDQQEKRKAIREQYTKNTAEQENLGKKLREKQKVIRESHGPNMKQAKMWRDLEQLMECKKQCFLKQQSQTSIGQVIQEGGEDRLIL
As for B1, in the assay with GFP-tagged β-arrestin1, the binding result is “binds”.
